No constants are given. Whether binding was seen depends on the method and setting. In cells and extracts the contact can be indirect. These calls come from enrichment with a bait or labelling near it, and not all partners need be listed.
Biological target: 3xFlag-tagged GPR75 (G protein-coupled receptor 75) of 3xFlag-Gpr75-knockin mice (mouse (endogenous in brain)) (UniProt Q6X632)
Experiment: affinity purification with mass spectrometry; Flag antibody-conjugated beads on brain lysates of 3xFlag-Gpr75-knockin mice in Nonidet P-40 lysis buffer, 4°C, eluted with 3xFlag peptides, mass spectrometry

Amino acid sequences for entries named in this document (tags omitted).
UniProt Q6X632: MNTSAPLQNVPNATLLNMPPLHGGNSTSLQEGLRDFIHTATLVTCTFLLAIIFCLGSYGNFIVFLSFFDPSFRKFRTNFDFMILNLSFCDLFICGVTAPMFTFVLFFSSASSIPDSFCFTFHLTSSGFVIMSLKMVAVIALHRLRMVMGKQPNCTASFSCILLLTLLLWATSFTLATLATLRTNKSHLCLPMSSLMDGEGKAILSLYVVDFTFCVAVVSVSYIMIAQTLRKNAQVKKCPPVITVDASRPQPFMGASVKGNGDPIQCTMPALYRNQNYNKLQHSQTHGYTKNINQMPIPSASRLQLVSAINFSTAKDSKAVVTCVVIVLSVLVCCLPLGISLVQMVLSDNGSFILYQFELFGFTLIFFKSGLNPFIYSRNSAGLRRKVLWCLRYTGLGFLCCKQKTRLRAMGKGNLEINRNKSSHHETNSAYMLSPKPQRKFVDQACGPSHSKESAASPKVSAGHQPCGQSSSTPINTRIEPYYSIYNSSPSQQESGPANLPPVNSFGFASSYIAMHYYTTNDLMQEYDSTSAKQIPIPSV
UniProt P21279: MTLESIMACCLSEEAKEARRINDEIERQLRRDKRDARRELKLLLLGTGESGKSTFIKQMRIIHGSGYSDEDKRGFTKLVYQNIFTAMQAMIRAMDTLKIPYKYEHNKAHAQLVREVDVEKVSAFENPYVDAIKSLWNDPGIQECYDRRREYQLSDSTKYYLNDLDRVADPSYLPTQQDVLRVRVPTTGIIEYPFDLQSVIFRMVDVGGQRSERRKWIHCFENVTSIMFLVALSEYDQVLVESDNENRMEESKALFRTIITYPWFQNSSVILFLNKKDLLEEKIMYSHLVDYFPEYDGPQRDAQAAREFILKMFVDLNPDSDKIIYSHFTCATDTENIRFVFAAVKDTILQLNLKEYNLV

Substance: GNAQ (Gαq), guanine nucleotide-binding protein (from UniProt P21279 1-359)
- binding: binds

From PMC11444156
